No constants are given. Whether binding was seen depends on the method and setting. For part of these data: Binding seen in cells or lysates may run through a third protein. Some binding calls cover weakened binding; strength is not graded here. For part of these data: Sequences can lack the tags named with a protein. One block for each binder: values may come before it.
Assays:
Smad3N (aa 1-144) = Smad3N (aa 1-144) (UniProt P84022); assay: co-immunoprecipitation, transfected cells
Smad3C (aa 231-424) = Smad3C (aa 231-424) (UniProt P84022); assay: co-immunoprecipitation, transfected cells
Smad3 [1] = target: Smad3 (UniProt P84022); assay: co-immunoprecipitation, transfected cells
[2] = target: LexA-Smad1 (full length Smad1 fused in frame to the LexA DNA binding domain (1-202) in pEG202) (UniProt P0A7C2); assay: yeast two-hybrid; list of Smad1 interactors
antizyme (human) = antizyme (human) (UniProt P54368); assay: list of antizyme interactors; yeast two-hybrid (FIG. 30)
Smad3 [3] = target: Smad3 (UniProt P84022); assay: yeast two-hybrid; list of Smad3 interactors
HsN3 (human) = HsN3 (human) (UniProt P28070); assay: list of HsN3 interactors; method not detailed
Smad2 = Smad2 (UniProt Q15796); assay: yeast two-hybrid; list of Smad2 interactors

By UniProt entry, the sequences of proteins in these tests, tags left out. Where a name states a change or a piece, a line headed by the entry shows the natural chain unless it says otherwise. Residues count along the entry.
UniProt P84022: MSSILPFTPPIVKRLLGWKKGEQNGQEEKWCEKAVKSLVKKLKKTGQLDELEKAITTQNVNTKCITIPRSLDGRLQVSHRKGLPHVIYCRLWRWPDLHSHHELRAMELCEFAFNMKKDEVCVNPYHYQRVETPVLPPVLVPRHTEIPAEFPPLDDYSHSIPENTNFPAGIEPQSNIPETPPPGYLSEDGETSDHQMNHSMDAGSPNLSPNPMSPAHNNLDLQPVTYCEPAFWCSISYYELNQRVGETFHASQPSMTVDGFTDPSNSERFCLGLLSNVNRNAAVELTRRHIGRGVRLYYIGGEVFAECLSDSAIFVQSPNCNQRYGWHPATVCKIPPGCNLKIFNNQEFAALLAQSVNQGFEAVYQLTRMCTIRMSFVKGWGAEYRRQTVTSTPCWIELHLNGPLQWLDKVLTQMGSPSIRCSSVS
Smad3N (aa 1-144): residues 1-144 of P84022
Smad3C (aa 231-424): residues 231-424 of P84022
UniProt P0A7C2: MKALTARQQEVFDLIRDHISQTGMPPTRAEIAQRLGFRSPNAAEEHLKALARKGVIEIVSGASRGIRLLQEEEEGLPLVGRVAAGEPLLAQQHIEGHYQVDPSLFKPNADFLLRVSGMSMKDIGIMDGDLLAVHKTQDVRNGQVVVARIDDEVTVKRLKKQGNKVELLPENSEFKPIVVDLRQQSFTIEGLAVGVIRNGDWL
UniProt P54368, residues 101-228: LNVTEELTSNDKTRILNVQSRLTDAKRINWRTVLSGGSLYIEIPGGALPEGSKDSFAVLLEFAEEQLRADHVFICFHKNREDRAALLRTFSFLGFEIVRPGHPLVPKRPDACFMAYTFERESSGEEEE
UniProt P28070: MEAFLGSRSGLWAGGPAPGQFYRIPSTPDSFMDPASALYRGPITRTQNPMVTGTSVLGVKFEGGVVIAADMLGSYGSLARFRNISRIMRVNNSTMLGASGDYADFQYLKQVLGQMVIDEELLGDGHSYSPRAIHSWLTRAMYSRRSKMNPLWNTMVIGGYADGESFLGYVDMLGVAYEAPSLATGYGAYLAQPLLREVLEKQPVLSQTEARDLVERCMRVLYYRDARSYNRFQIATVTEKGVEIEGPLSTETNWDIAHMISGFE
UniProt Q15796: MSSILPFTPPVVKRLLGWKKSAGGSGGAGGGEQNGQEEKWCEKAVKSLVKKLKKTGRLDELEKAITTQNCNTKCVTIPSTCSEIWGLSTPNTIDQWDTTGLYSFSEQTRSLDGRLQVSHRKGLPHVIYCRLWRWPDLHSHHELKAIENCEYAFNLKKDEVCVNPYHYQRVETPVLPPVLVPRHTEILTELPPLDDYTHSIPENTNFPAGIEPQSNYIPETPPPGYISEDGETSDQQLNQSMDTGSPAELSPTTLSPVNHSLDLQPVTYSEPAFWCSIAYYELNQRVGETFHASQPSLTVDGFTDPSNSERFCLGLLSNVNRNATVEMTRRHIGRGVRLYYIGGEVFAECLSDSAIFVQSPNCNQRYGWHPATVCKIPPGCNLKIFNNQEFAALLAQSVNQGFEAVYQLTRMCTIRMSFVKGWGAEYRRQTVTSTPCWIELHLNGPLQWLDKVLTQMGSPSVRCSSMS

B3: Clone S3+12 (protein)
chain: EFGTRRRKATEISTAVVQRSATIGSSPVLYSQSAIATGHQAAGIGNQATGIGHQTIPVSLPAAGMGHQARGMSLQSNYLGLAAAPAIMSYAECSVPIGVTAPSLQPVQARGAVPTATIIEPPPPPPPPPPPPPPAPKMPPPEKTKKGRKDKAKKSKTKMPSLVKKWQSIQRELDEEDNSSSSEEDRESTAQKRIEEWKQQQLVSGMAERNANFEALPEDWRARLKRRKMAPNT
binding (Smad3 [3]): binds | binding [2]: binds

B5: FKBP25 (a prolyl-isomerase), clone S3+127 (enzyme, UniProt Q00688 100-224, looked up)
chain: SEETLDEGPPKYTKSVLKKGDKTNFPKKGDVVHCWYTGTLQDGTVFDTNIQTSAKKKKNAKPLSFKVGVGKVIRGWDEALLTMSKGEKARLEIEPEWAYGKKGQPDAKIPPNAKLTFEVELVDID
binding (Smad3 [3]): binds

B7: HEF1 M2/M (aa 695-759) (protein, human, UniProt Q14511 695-759, looked up)
chain: TTNSGVSAQDRQLLCFYYDQCETHFISLLNAIDALFSCVSSAQPPRIFVAHSKFVILSAHKLVFI
binding (Smad3C (aa 231-424)): binds

B8: Clone S1+28 (protein)
chain: FAVDAKALPQNKPRPLTQEEIAQRRERARQRHAEKLAAAQGQAPLEPTQDGSAIETCPKGDEPRGDEQQVESMTPKPVLQEENNQESFIAFARVFSGVARRGKKIFVLGPKYSPLEFLRRVPLCFSAPPDGLPQVPHMAYCALENLYLLMGRELEYLEEVPPGNVLGIGGLQDFVLKSATLCSLPSCPPFIPLNFEATPIVRVAVEPKHPSEMPQLVKGMKLLNQADPCVQILIQETGEHVLVTAGEVHLQRCLDDLKERFAKIHISVSEPIIPFRETITKPPKVDMVNEEIGKQQKVAVIHQMKEDQSKIPEGIQVDSDGLITITTPNKLATLSVRAMPLPEEVTQILEENSDLIRSMEQLTSSLNEGENTHMIHQKTQEKIWEFKGKLEQHLTGRRWRNIVDQIWSFGPRKCGPNILVNKSEDFQNSVWTGPADKASKEASRYRDLGNSIVSGFQLATLSGPMCEEPLMGVCFVLEKWDLSKFEEQGASDLAKEDRRKMKPVLVEMKTKSYKMAALRPLRRGHHRKENLHSLTAMDLSQDS
binding (antizyme (human)): binds

B9: HEF1 M2/N (aa 651-759) (protein, human, UniProt Q14511 651-759, looked up)
chain: ENIMKQNKMQLEHHQLSQFQLLEQEITKPVENDISKWKPSQSLPTTNSGVSAQDRQLLCFYYDQCETHFISLLNAIDALFSCVSSAQPPRIFVAHSKFVILSAHKLVFI
binding (Smad3C (aa 231-424)): binds

B10: HEF1 M2/C (aa 695-832) (protein, human, UniProt Q14511 695-832, looked up)
chain: TTNSGVSAQDRQLLCFYYDQCETHFISLLNAIDALFSCVSSAQPPRIFVAHSKFVILSAHKLVFIGDTLTRQVTAQDIRNKVMNSSNQLCEQLKTIVMATKMAALHYPSTTALQEMVHQVTDLSRNAQLFKRSLLEMA
binding (Smad3C (aa 231-424)): binds

B11: GST (glutathione transferase), clone S1+13 (enzyme, not shown: small tags and cut ends)
chain: SCESSMVLGYWDIRGLAHAIRLLLEFTDTSYEEKRYTCGEAPDYDRSQWLDVKFKLDLDFPNLPYLLDGKNKITQSNAILRYIARKHNMCGETEEEKIRVDIIENQVMDFRTQLIRLCYSSDHEKLKPQYLEELPGQLKQFSMFLGKFSWFAGEKLTFVDFLTYDILDQNRIFDPKCLDEFPNLKAFMCRFEALEKIAAYLQSDQFCKMPINNKMAQWGNKPVC
binding (Smad2): binds | binding [2]: binds

B12: Clone S1+27 (SIP2) (protein)
chain: KSSPLLIRMEESLNIVKYTAFLYNDQLIWSGLEQDDMRILYKYLTTSLFPRHIEPELAGRDSPIRAEMPGNLQHYGRFLTGPLNLNDPDAKCRFPKIFVNTDDTYEELHLIVYKAMSAAVCFMIDASVHPTLDFCRRLDSIVGPQLTVLASDICEQFNINKRMSGSEKEPQFKFIYFNHMNLAEKSTVHMRKTPSVSLTSVHPDLMKILGDINSDFTRVDEDEEIIVKAMSDYWVVGKKSDRRELYVILNQKNANLIEVNEVKKLCATQFNNIFFLD
binding (antizyme (human)): binds

B15: HEF1 M2 (aa 651-834) (protein, human, UniProt Q14511 651-834, looked up)
chain: ENIMKQNKMQLEHHQLSQFQLLEQEITKPVENDISKWKPSQSLPTTNSGVSAQDRQLLCFYYDQCETHFISLLNAIDALFSCVSSAQPPRIFVAHSKFVILSAHKLVFIGDTLTRQVTAQDIRNKVMNSSNQLCEQLKTIVMATKMAALHYPSTTALQEMVHQVTDLSRNAQLFKRSLLEMATF
binding (Smad3C (aa 231-424)): binds

Further lines, results first:

binding (Smad3N (aa 1-144)): binds | binding (Smad3C (aa 231-424)): binds | binding (Smad3 [1]): binds
B1: p105HEF1 (full length HEF1, 105 kD form) (protein, human, UniProt Q14511 1-834, looked up)
chain: MKYKNLMARALYDNVPECAEELAFRKGDILTVIEQNTGGLEGWWLCSLHGRQGIVPGNRVKLLIGPMQETASSHEQPASGLMQQTFGQQKLYQVPNPQAAPRDTIYQVPPSYQNQGIYQVPTGHGTQEQEVYQVPPSVQRSIGGTSGPHVGKKVITPVRTGHGYVYEYPSRYQKDVYDIPPSHTTQGVYDIPPSSAKGPVFSVPVGEIKPQGVYDIPPTKGVYAIPPSACRDEAGLREKDYDFPPPMRQAGRPDLRPEGVYDIPPTCTKPAGKDLHVKYNCDIPGAAEPVARRHQSLSPNHPPPQLGQSVGSQNDAYDVPRGVQFLEPPAETSEKANPQERDGVYDVPLHNPPDAKGSRDLVDGINRLSFSSTGSTRSNMSTSSTSSKESSLSASPAQDKRLFLDPDTAIERLQRLQQALEMGVSSLMALVTTDWRCYGYMERHINEIRTAVDKVELFLKEYLHFVKGAVANAACLPELILHNKMKRELQRVEDSHQILSQTSHDLNECSWSLNILAINKPQNKCDDLDRFVMVAKTVPDDAKQLTTTINTNAEALFRPGPGSLHLKNGPESIMNSTEYPHGGSQGQLLHPGDHKAQAHNKALPPGLSKEQAPDCSSSDGSERSWMDDYDYVHLQGKEEFERQQKELLEKENIMKQNKMQLEHHQLSQFQLLEQEITKPVENDISKWKPSQSLPTTNSGVSAQDRQLLCFYYDQCETHFISLLNAIDALFSCVSSAQPPRIFVAHSKFVILSAHKLVFIGDTLTRQVTAQDIRNKVMNSSNQLCEQLKTIVMATKMAALHYPSTTALQEMVHQVTDLSRNAQLFKRSLLEMATF
modifications: form derived from differential phosphorylation; sites not given

binding [2]: binds | binding (antizyme (human)): binds
B2: PAG (an antioxidant protein), clone S1+35 (protein, human, UniProt Q06830 35-199, looked up)
chain: KGKYVVFFFYPLDFTFVCPTEIIAFSDRAEEFKKLNCQVIGASVDSHFCHLAWVNTPKKQGGLGPMNIPLVSDPKRTIAQDYGVLKADEGISFRGLFIIDDKGILRQITVNDLPVGRSVDETLRLVQAFQFTDKHGEVCPAGWKPGSDTIKPDVQKSKEYFSKQK

binding (Smad3 [3]): binds
B4: RBP2 (an interactor of the tumor suppressor RB protein), clone S3+63 (protein, UniProt P29375 1248-1690, looked up)
chain: CLTERAMSWQDRARQALATDELSSALAKLSVLSQRMVEQAAREKTEKIISAELQKAAANPDLQGHLPSFQQSAFNRVVSSVSSSPRQTMDYDDEETDSDEDIRETYGYDMKDTASVKSSSSLEPNLFCDEEIPIKSEEVVTHMWTAPSFCAEHAYSSASKSCSQGSSTPRKQPRKSPLVPRSLEPPVLELSPGAKAQLEELMMVGDLLEVSLDETQHIWRILQATHPPSEDRFLHIMEDDSMEEKPLKVKGKDSSEKKRKRKLEKVEQLFGEGKQKSKELKKMDKPRKKKLKLGADKSKELNKLAKKLAKEEERKKKKEKAAAAKVELVKESTEKKREKKVLDIPSKYDWSGAEESDDENAVCAAQNCQRPCKDKVDWVQCDGGCDEWFHQVCVGVSPEMAENEDYICINCAKKQGPVSPGPAPPPSFIMSYKLPMEDLKETS

binding (Smad3 [3]): binds | binding (HsN3 (human)): binds | binding (antizyme (human)): binds
B6: HEF1, Human enhancer of filamentation (yeast two-hybrid clone, starts at nt. 1527 of GenBank ID No. L43821) (protein, UniProt Q14511 456-834, looked up)
chain: ELFLKEYLHFVKGAVANAACLPELILHNKMKRELQRVEDSHQILSQTSHDLNECSWSLNILAINKPQNKCDDLDRFVMVAKTVPDDAKQLTTTINTNAEALFRPGPGSLHLKNGPESIMNSTEYPHGGSQGQLLHPGDHKAQAHNKALPPGLSKEQAPDCSSSDGSERSWMDDYDYVHLQGKEEFERQQKELLEKENIMKQNKMQLEHHQLSQFQLLEQEITKPVENDISKWKPSQSLPTTNSGVSAQDRQLLCFYYDQCETHFISLLNAIDALFSCVSSAQPPRIFVAHSKFVILSAHKLVFIGDTLTRQVTAQDIRNKVMNSSNQLCEQLKTIVMATKMAALHYPSTTALQEMVHQVTDLSRNAQLFKRSLLEMATF

binding (Smad2): binds | binding (Smad3 [3]): binds | binding [2]: binds
B13: TRIP-4 (an interactor of thyroid hormone receptor), clone S3+75 (protein, UniProt Q15650 115-581, looked up)
chain: VPAFTEPDTTAEVKTPFDLAKAQENSNSVKKKTKFVNLYTREGQDRLAVLLPGRHPCDCLGQKHKLINNCLICGRIVCEQEGSGPCLFCGTLVCTHEEQDILQRDSNKSQKLLKKLMSGVENSGKVDISTKDLLPHQELRIKSGLEKAIKHKDKLLEFDRTSIRRTQVIDDESDYFASDSNQWLSKLERETLQKREEELRELRHASRLSKKVTIDFAGRKILEEENSLAEYHSRLDETIQAIANGTLNQPLTKLDRSSEEPLGVLVNPNMYQSPPQWVDHTGAASQKKAFRSSGFGLEFNSFQHQLRIQDQEFQEGFDGGWCLSVHQPWASLLVRGIKRVEGRSWYTPHRGRLWIAATAKKPSPQEVSELQATYRLLRGKDVEFPNDYPSGCLLGCVDLIDCLSQKQFKEQFPDISQESDSPFVFICKNPQEMVVKFPIKGNPKIWKLDSKIHQGAKKGLMKQNKAV

binding [2]: binds
B14: Ran-GTP binding protein 5, clone S1+32 (protein, human, UniProt O00410 230-1097, looked up)
chain: YQNDDSVLKSLVEIADTVPKYLRPHLEATLQLSLKLCGDTSLNNMQRQLALEVIVTLSETAAAMLRKHTNIVAQTIPQMLAMMVDLEEDEDWANADELEDDDFDSNAVAGESALDRMACGLGGKLVLPMIKEHIMQMLQNPDWKYRHAGLMALSAIGEGCHQQMEGILNEIVNFVLLFLQDPHPRVRYAACNAVGQMATDFAPGFQKKFHEKVIAALLQTMEDQGNQRVQAHAAAALINFTEDCPKSLLIPYLDNLVKHLHSIMVLKLQELIQKGTKLVLEQVVTSIASVADTAEEKFVPYYDLFMPSLKHIVENAVQKELRLLRGKTIECISLIGLAVGKEKFMQDASDVMQLLLKTQTDFNDMEDDDPQISYMISAWARMCKILGKEFQQYLPVVMGPLMKTASIKPEVALLDTQDMENMSDDDGWEFVNLGDQQSFGIKTAGLEEKSTACQMLVCYAKELKEGFVEYTEQVVKLMVPLLKFYFHDGVRVAAAESMPLLLECARVRGPEYLTQMWHFMCDALIKAIGTEPDSDVLSEIMHSFAKCIEVMGDGCLNNEHFEELGGILKAKLEEHFKNQELRQVKRQDEDYDEQVEESLQDEDDNDVYILTKVSDILHSIFSSYKEKVLPWFEQLLPLIVNLICPHRPWPDRQWGLCIFDDVIEHCSPASFKYAEYFLRPMLQYVCDNSPEVRQAAAYGLGVMAQYGGDNYRPFCTEALPLLVRVIQSADSKTKENVNATENCISAVGKIMKFKPDCVNVEEVLPHWLSWLPLHEDKEEAVQTFNYLCDLIESNHPIVLGPNNTNLPKIFSIIAEGEMHEAIKHEDPCAKRLANVVRQVQTSGGLWTECIAQLSPEQQAAIQELLNSA

Source: patent publication US6906179
